For the test, the target named is T1, human corneodesmosine of 52-56 kDa extracted from human epidermis (human) (UniProt Q15517).
T1 sequence (chain, N-glycosylated; phosphorylated on serine (sites not stated)): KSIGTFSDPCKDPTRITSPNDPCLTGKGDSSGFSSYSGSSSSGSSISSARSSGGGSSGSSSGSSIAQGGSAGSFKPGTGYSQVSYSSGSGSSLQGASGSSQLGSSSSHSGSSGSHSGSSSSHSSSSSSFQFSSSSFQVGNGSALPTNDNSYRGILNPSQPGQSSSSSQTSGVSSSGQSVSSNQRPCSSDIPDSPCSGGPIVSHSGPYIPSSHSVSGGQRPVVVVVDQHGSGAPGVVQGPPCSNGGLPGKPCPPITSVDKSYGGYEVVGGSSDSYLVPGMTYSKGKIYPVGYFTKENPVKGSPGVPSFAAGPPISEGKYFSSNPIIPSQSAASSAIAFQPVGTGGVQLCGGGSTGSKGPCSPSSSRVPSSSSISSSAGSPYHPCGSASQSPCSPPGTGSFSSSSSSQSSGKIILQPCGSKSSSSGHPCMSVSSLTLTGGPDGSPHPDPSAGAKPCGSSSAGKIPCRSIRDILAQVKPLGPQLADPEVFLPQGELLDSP
Kind of test: lectin blot with biotinylated lectin (1 µg/ml) on affinity-purified corneodesmosine.

Results are given in words; binding and its absence hold for the method and conditions named. Some entries that bind do so weakly or less than the wild type.

Experimental findings from US20050112150A1 are described below.

B1: wheat germ agglutinin (protein, UniProt P10968 27-197, looked up)
chain: QRCGEQGSNMECPNNLCCSQYGYCGMGGDYCGKGCQNGACWTSKRCGSQAGGATCTNNQCCSQYGYCGFGAEYCGAGCQGGPCRADIKCGSQAGGKLCPNNLCCSQWGFCGLGSEFCGGGCQSGACSTDKPCGKDAGGRVCTNNYCCSKWGSCGIGPGYCGAGCQSGGCDG
modifications: biotinylated
Consider B1, for which the binding entry is “binds”.
